PubChem BioAssay AID1224828 – NIAID, 2016

- Aim: 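Knock-downs that increase or decrease LPS-induced p65 nuclear translocation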 (primary screen)
- Cell system: mouse RAW264.7 G9 macrophage reporter cells (GFP-p65, Tnf promoter-mCherry)
- Knock-down reagent: siRNA pool against mouse genes, 100 nM
- Time to read-out: 2 days siRNA transfection, then 40 min LPS before fixation
- Treatment: LPS (Salmonella minnesota R595) at 10 ng/ml
- Read-out: 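Imaged p65 nuclear translocation ratio, normalised to the plate median, converted to robust z-scores and averaged across two replicates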
- Reading the numbers: p65 translocation robust z-score: higher = more nuclear NF-kappaB p65 after LPS than the plate median; nuclear/cytoplasmic p65 ratio: higher = more nuclear NF-kappaB p65
- Rule for the call: 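Active if robust z is above 3.3 (negative regulators) or below -1.56, the Tlr4 control median (positive regulators); activity score 50 or more; control wells not called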
- Calls: active = hit (p65 shift raised or lowered); inactive = no clear change
The whole screen tested about 17,000 reagents; shown is a random part of them. Over the whole deposit, 762 (4.5%) got an active call. 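Active calls include both raised and lowered p65 entry, mostly lowered; wells with fewer than 50 cells lack a z-score.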 Raw values are not corrected between plates. A reagent listed more than once was tested more than once; the source does not tell the runs apart.

target | p65 translocation robust z-score | nuclear/cytoplasmic p65 ratio, rep 1 | nuclear/cytoplasmic p65 ratio, rep 2 | low cell count flag | Outcome
Cyba | -0.1 | 1.44 | 1.38 | enough cells to score | inactive
Cog4 | -0.35 | 1.38 | 1.37 | enough cells to score | inactive
Cep20 | -0.63 | 1.41 | 1.47 | enough cells to score | inactive
Or6e1 | 0.19 | 1.47 | 1.25 | enough cells to score | inactive
Nol4 | -0.13 | 1.7 | 1.47 | enough cells to score | inactive
Zfy1 | – | 1.36 | 1.06 | fewer than 50 cells per well; well left out of scoring | inactive
1700018B08Rik | 1.9 | 1.7 | 1.61 | enough cells to score | inactive
Mylip | -0.71 | 1.65 | 1.5 | enough cells to score | inactive
Amy2a5 | 0.62 | 1.76 | 1.72 | enough cells to score | inactive
Ctns | 0 | 1.52 | 1.34 | enough cells to score | inactive
Phospho1 | 0.7 | 1.54 | 1.55 | enough cells to score | inactive
Sdad1 | -0.62 | 1.36 | 1.13 | enough cells to score | inactive
Trf | 1.06 | 1.66 | 1.65 | enough cells to score | inactive
Prtn3 | -0.08 | 1.35 | 1.22 | enough cells to score | inactive
Ywhah | – | 1.55 | 1.14 | fewer than 50 cells per well; well left out of scoring | inactive
Mre11a | -0.08 | 1.34 | 1.42 | enough cells to score | inactive
Ifnab | – | 1.29 | 1.31 | fewer than 50 cells per well; well left out of scoring | inactive
Iapp | 0.17 | 1.44 | 1.42 | enough cells to score | inactive
Or8s8 | -0.75 | 1.46 | 1.33 | enough cells to score | inactive
Itm2c | 0.23 | 1.61 | 1.44 | enough cells to score | inactive
Or4a69 | -1.57 | 1.37 | 1.15 | enough cells to score | active
Pex5l | -1.27 | 1.27 | 1.2 | enough cells to score | inactive
Plekha6 | -0.84 | 1.29 | 1.18 | enough cells to score | inactive
Ppm1g | -0.21 | 1.39 | 1.45 | enough cells to score | inactive
LTO1 | 1.13 | 1.64 | 1.33 | enough cells to score | inactive
1700020M10Rik | – | 1.31 | 1.15 | fewer than 50 cells per well; well left out of scoring | inactive
Or12k8 | – | 1.36 | 1.12 | fewer than 50 cells per well; well left out of scoring | inactive
Ptpn3 | -1.69 | 1.19 | 1.25 | enough cells to score | active
Thap4 | 0.32 | 1.25 | 1.23 | enough cells to score | inactive
Or51ah3 | 0.31 | 1.45 | 1.33 | enough cells to score | inactive
Defb3 | 0.29 | 1.59 | 1.61 | enough cells to score | inactive
Myod1 | 0.24 | 1.48 | 1.37 | enough cells to score | inactive
Myo5b | -1.28 | 1.58 | 1.4 | enough cells to score | inactive
Ly96 | – | 1.21 | 1.03 | fewer than 50 cells per well; well left out of scoring | inactive
Cbln2 | -1.8 | 1.34 | 1.47 | enough cells to score | active
Cyp2s1 | 0.8 | 1.76 | 1.84 | enough cells to score | inactive
Pcdha5 | 1.66 | 1.64 | 1.45 | enough cells to score | inactive
Commd9 | -0.75 | 1.55 | 1.57 | enough cells to score | inactive
Prkag2 | 0.3 | 1.62 | 1.7 | enough cells to score | inactive
Pdlim5 | -0.98 | 2.03 | 1.26 | enough cells to score | inactive
Pdlim5 | -0.29 | 1.36 | 1.54 | enough cells to score | inactive
Ube2d1 | 0.28 | 1.6 | 1.49 | enough cells to score | inactive
Klf9 | -0.21 | 1.62 | 1.55 | enough cells to score | inactive
Zfyve27 | 1.54 | 1.58 | 1.46 | enough cells to score | inactive
Or4c106 | -0.19 | 1.74 | 1.46 | enough cells to score | inactive
Fam13a | -0.21 | 1.56 | 1.49 | enough cells to score | inactive
Anks1b | – | 1.35 | 1.37 | fewer than 50 cells per well; well left out of scoring | inactive
Srp9 | 0.12 | 1.5 | 1.19 | enough cells to score | inactive
Spmip5 | – | 1.29 | 1.1 | fewer than 50 cells per well; well left out of scoring | inactive
Gzmd | -0.79 | 1.57 | 1.44 | enough cells to score | inactive
Fiz1 | -2.09 | 1.32 | 1.15 | enough cells to score | active
Il5 | 0.05 | 1.46 | 1.41 | enough cells to score | inactive
Or4c3 | 1.07 | 1.67 | 1.29 | enough cells to score | inactive
Cacna1e | -0.61 | 1.48 | 1.56 | enough cells to score | inactive
Gchfr | – | 2.21 | 1.23 | fewer than 50 cells per well; well left out of scoring | inactive
Timeless | -0.8 | 1.44 | 1.38 | enough cells to score | inactive
Lrrc58 | – | 1.26 | 1.36 | fewer than 50 cells per well; well left out of scoring | inactive
Calm1 | – | 1.41 | 1.4 | fewer than 50 cells per well; well left out of scoring | inactive
Msantd4 | 1.9 | 1.7 | 1.8 | enough cells to score | inactive

7 entries from above, sorted by “p65 translocation robust z-score”, low to high.
target | p65 translocation robust z-score | nuclear/cytoplasmic p65 ratio, rep 1 | nuclear/cytoplasmic p65 ratio, rep 2 | low cell count flag | Outcome
Or4a69 | -1.57 | 1.37 | 1.15 | enough cells to score | active
Pex5l | -1.27 | 1.27 | 1.2 | enough cells to score | inactive
Plekha6 | -0.84 | 1.29 | 1.18 | enough cells to score | inactive
Or8s8 | -0.75 | 1.46 | 1.33 | enough cells to score | inactive
Ppm1g | -0.21 | 1.39 | 1.45 | enough cells to score | inactive
Iapp | 0.17 | 1.44 | 1.42 | enough cells to score | inactive
Itm2c | 0.23 | 1.61 | 1.44 | enough cells to score | inactive
